Reference: the supplement of paper PMC5249140, “Delineating Substrate Diversity of Disparate Short-Chain Dehydrogenase Reductase from Debaryomyces hansenii” (PLoS ONE, 2017)
Repeats are few or missing, and single values can be far off.

tested on: DHK short-chain dehydrogenase reductase (Debaryomyces hansenii, Q6BTD7); assay: apparent turnover number kcat for ketone reduction (NADPH consumption, 100 uM substrate) (s-1); higher = faster reduction of the ketone by the enzyme; settings: substrate concentration 100 µM; NADPH 100 µM; pH 7.4; 25 °C
Method: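 Purified N-His6 DHK (unannotated SDR, Debaryomyces hansenii) was screened against a prochiral ketone library: 100 uM substrate, 100 uM NADPH, 1% BSA, 4% DMSO in 100 mM sodium phosphate / 100 mM NaCl pH 7.4 at 25 C, ~27 nM enzyme. Rate was followed by NADPH depletion at 340 nm and reported as apparent kcat (s-1) at a single substrate concentration; no replicates stated.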

Row | SMILES | apparent turnover number kcat
1 | O=C(CN1C(=O)c2ccccc2C1=O)OCC(=O)c1c[nH]c2ccccc12 | 6.02
2 | N#Cc1cc(C(=O)c2cc(Cl)ccc2O)cn(-c2ccccc2)c1=O | 4.7
3 | O=C(COC(=O)CN1C(=O)C(=O)c2ccccc21)NCc1ccco1 | 3.78
4 | Cc1ccc(O)c(C(=O)c2cc(C#N)c(=O)n(-c3ccccc3C)c2)c1 | -0.0132
5 | Cc1ccc(C(=O)COc2ccc3c(-c4ccccc4)cc(=O)oc3c2)cc1 | 2.89
6 | COc1ccc(C)cc1-n1nnnc1SCC(=O)c1ccc[nH]1 | 3.57
7 | O=C(COC(=O)c1cc2ccccc2cc1O)c1ccc(F)c(F)c1 | 3.86
8 | O=C(CSc1nnc(-c2cccnc2)o1)c1ccc(Cl)cc1 | 2.98
9 | CC(=O)c1cccc(N(CC(=O)Nc2ccccc2Cl)S(C)(=O)=O)c1 | 4.2
10 | CC(=O)c1cccc(N(CC(=O)N2CCC(C(N)=O)CC2)S(C)(=O)=O)c1 | 4.73
11 | O=C([O-])c1ccccc1C(=O)c1cccc(S(=O)(=O)N2CCOCC2)c1 | 3.08
12 | O=C(COC(=O)c1cccnc1)c1ccc(-c2ccccc2)cc1 | 4.34
13 | O=C(CSc1nnc2ccccn12)c1cc2ccccc2o1 | 6.11
14 | CC1(C)CC(=O)C=C(NNC(=O)c2cccnc2)C1 | 2.88
15 | CN(C(=O)c1ccc2c(c1)S(=O)(=O)c1ccccc1C2=O)c1ccccc1 | 6.1
16 | Cc1c(C(=O)OCC(=O)c2c(N)n(CC(C)C)c(=O)n(C)c2=O)oc2ccccc12 | 3.56
17 | CC(=O)c1ccc(O)c(CSc2nnc(-c3ccc(Br)cc3)o2)c1 | 7.9
18 | CC(=O)c1cccc(N(CC(=O)Nc2ccc(I)cc2C)S(C)(=O)=O)c1 | 3.99
19 | CC(=O)N(C1=C(Cl)C(=O)c2ccccc2C1=O)c1cccc(F)c1 | 3.5
20 | CC(=O)c1cccc(S(=O)(=O)Nc2sc3c(c2C(N)=O)CCC3)c1 | 5.62
21 | O=C1COc2ccc(C(=O)COC(=O)c3cccs3)cc2N1 | 4.8
22 | COc1ccc(S(=O)(=O)Nc2ccc(C(C)=O)cc2)cc1[N+](=O)[O-] | 5.29
23 | N#Cc1cc(C(=O)c2ccccc2O)cn(-c2ccccn2)c1=O | 6
24 | CCc1ccc(C(=O)COC(=O)CN2C(=O)c3ccccc3C2=O)cc1 | 4.45
25 | COc1cc(C(=O)OCC(=O)c2ccccc2)c([N+](=O)[O-])cc1OC | 4.46
26 | O=C([O-])CCC(=O)CCC(=O)c1ccccc1 | 4.94
27 | Cc1ccc(C(=O)COC(=O)CCN2C(=O)c3ccccc3C2=O)c(C)c1 | 4.45
28 | O=C(CN1C(=O)c2ccc([N+](=O)[O-])cc2C1=O)OCC(=O)c1ccc(Br)cc1 | 3.84
29 | O=C1NC2=C(C(=O)CCC2)C(c2ccc(OC(F)F)cc2)N1 (stereo not given) | 0.0442
30 | CC(=O)c1cccc(Nc2nnc(C)c(=O)[nH]2)c1 | 4.57

2 of these compounds in another layout:
O=C(CSc1nnc2ccccn12)c1cc2ccccc2o1
  apparent turnover number kcat: 6.11
CC1(C)CC(=O)C=C(NNC(=O)c2cccnc2)C1
  apparent turnover number kcat: 2.88
